PubChem BioAssay AID1259314 – Drosophila RNAi Screening Center, 2017

Assay: 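Transmembrane protein genes affecting ATP after manganese overload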 (primary screen)
Cells: Drosophila S2R+ cells
Knock-down reagent: long dsRNA against Drosophila genes
Time to read-out: 5 days (4 days knock-down, then 1 day metal exposure)
Challenge: manganese chloride added to 15 mM for 24 hours
Measured: 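Luciferase ATP signal used as a proxy for viable cell number, reported as one averaged z-score per dsRNA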
Reading the numbers: mean ATP z-score: higher = more ATP than the plate average, more viable cells under manganese
Hit rule: 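Called active when the mean ATP z-score is above 1.5 or below -1.5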
Meaning of the calls: active = strong ATP change, up or down; inactive = no strong ATP change
In all, the deposit lists about 3,100 reagents; below is a part drawn at random. 289 of all reagents (9.3%) were called active. 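Active includes both higher and lower ATP than plate average; check the z-score sign for direction.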 Unmarked entries are inactive. Names joined by + are all predicted targets of the reagent. Not stated in the record: the amount of reagent.

Mgtor [DRSC05958] — mean ATP z-score = -1.3
Mgtor [DRSC39824] — mean ATP z-score = -1.46
CG34109 [DRSC02225] — mean ATP z-score = -0.389
CG34109 [DRSC26977] — mean ATP z-score = 0.492
CG34109 [DRSC30104] — mean ATP z-score = -0.513
m [DRSC20181] — mean ATP z-score = 0.267
m [DRSC29636] — mean ATP z-score = -0.135
Gr66a [DRSC10783] — mean ATP z-score = -0.92
Gr66a [DRSC39878] — mean ATP z-score = 0.746
COX6AL2 + Ir75d [DRSC10081] — mean ATP z-score = -1.17
COX6AL2 + Ir75d [DRSC39747] — mean ATP z-score = 0.0474
CG32206 [DRSC10095] — mean ATP z-score = -1.4
CG32206 [DRSC10096] — mean ATP z-score = 0.462
Gle1 [DRSC06485] — mean ATP z-score = 0.162
Gle1 [DRSC29960] — mean ATP z-score = 0.684
Or65c [DRSC21312] — mean ATP z-score = -0.753
Or65c [DRSC39421] — mean ATP z-score = 6.08 (active)
Tsp66A + CG42660 + CG42661 [DRSC10233] — mean ATP z-score = 2.48 (active)
plh [DRSC12294] — mean ATP z-score = 0.766
CG33337 [DRSC27000] — mean ATP z-score = -0.783
CG33337 [DRSC39721] — mean ATP z-score = 0.979
CG9706 [DRSC11095] — mean ATP z-score = -0.335
CG9706 [DRSC39822] — mean ATP z-score = -0.382
CG3638 [DRSC18533] — mean ATP z-score = -0.243
CG3638 [DRSC25349] — mean ATP z-score = 1.96 (active)
CG31100 [DRSC14453] — mean ATP z-score = 0.0861
CG31100 [DRSC14455] — mean ATP z-score = 1.23
Unc-115b + p24-2 [DRSC16492] — mean ATP z-score = -0.875
Cad87A [DRSC16161] — mean ATP z-score = 1.13
Cad87A [DRSC29158] — mean ATP z-score = 0.111
CG18609 [DRSC06775] — mean ATP z-score = -0.0936
CG18609 [DRSC27601] — mean ATP z-score = -0.954
Gat [DRSC17144] — mean ATP z-score = 0.609
Gat [DRSC39474] — mean ATP z-score = 0.241
CG4942 [DRSC10462] — mean ATP z-score = -0.0834
CG4942 [DRSC39879] — mean ATP z-score = -0.797
CG9304 [DRSC04538] — mean ATP z-score = 0.0854
CG9304 [DRSC26210] — mean ATP z-score = -0.495
slv [DRSC07685] — mean ATP z-score = 0.726
CG14777 [DRSC18563] — mean ATP z-score = 0.584
Dop2R [DRSC20683] — mean ATP z-score = -1.6 (active)
Dop2R [DRSC29286] — mean ATP z-score = -0.5
meigo [DRSC15877] — mean ATP z-score = -0.145
meigo [DRSC25836] — mean ATP z-score = -0.0502
Acp95EF + Spase22-23 [DRSC14102] — mean ATP z-score = 1.95 (active)
NtR [DRSC04628] — mean ATP z-score = 0.334
NtR [DRSC27686] — mean ATP z-score = 2.37 (active)
